These results are taken from the supplement of paper PMC7238544.

Counter-ions that a name gives are not always drawn. ± gives the standard deviation of the averaged measurements. This is one part of the list. The data scatter; read single values as rough.

Assay [1] relates to hAMSC donor 1. The assay is described as follows: Hoechst total cell count ratio vs vehicle control; higher = more cells (less toxicity).
Assay [2] concerns hAMSC donor 2. The assay is described as above.
For assay [3], the system named is hAMSC donor 1. The assay can be described thus: transgenic luciferase activity (RLU/mg protein) fold change vs vehicle control (ratio); higher = more transgene expression.
Assay [4] deals with hAMSC donor 2. The description is as above.
Assay [5] concerns hAMSC donor 1. The assay can be described thus: transfection efficiency (EGFP+ cells / Hoechst count) fold change vs vehicle control (ratio); hAMSC are human adipose-derived mesenchymal stem cells given an EGFP-luciferase plasmid by lipofection; higher = enhanced transfection.
For assay [6], the system named is hAMSC donor 2. The description is as above.
[7] abbreviates: priming compound concentration 0.2 µM.
Where [8] appears, read: priming compound concentration 1.7 µM.
Setting [9] is: priming compound concentration 13 µM.

On to `Clc1ccc(CO/N=C(\Cn2ccnc2)c2ccc(Cl)cc2Cl)c(Cl)c1` [Oxiconazole nitrate], for which the “Hoechst total cell count ratio” value in the assay on hAMSC donor 1 [1] (setting [7]) was 1.19 ± 0.17; with hAMSC donor 1 [1] (setting [8]), 1.52 ± 0.25; with hAMSC donor 1 [1] (setting [9]), 1.27 ± 0.054; in the assay with hAMSC donor 2 [2] (setting [7]), 1.15 ± 0.11; in the assay on hAMSC donor 2 [2] (setting [8]), 1.29 ± 0.12; in the assay on hAMSC donor 2 [2] (setting [9]), 1.42 ± 0.12. The figures for the transgenic luciferase activity in the assay with hAMSC donor 1 [3] (setting [9]), in the assay on hAMSC donor 2 [4] (setting [7]) and in the assay with hAMSC donor 2 [4] (setting [9]) were 0.646 ± 0.15, 0.803 ± 0.14 and 0.451 ± 0.1, respectively. The transfection efficiency with hAMSC donor 1 [5] (setting [7]) stood at 1.38 ± 0.14; in the assay on hAMSC donor 1 [5] (setting [8]), 0.953 ± 0.072; in the assay with hAMSC donor 1 [5] (setting [9]), 0.686 ± 0.21; with hAMSC donor 2 [6] (setting [7]), 0.856 ± 0.28; in the assay with hAMSC donor 2 [6] (setting [8]) it was 0.65 ± 0.13; with hAMSC donor 2 [6] (setting [9]), 0.595 ± 0.09.

In the case of `O=C(O[C@@H]1Cc2c(O)cc(O)cc2O[C@@H]1c1cc(O)c(O)c(O)c1)c1cc(O)c(O)c(O)c1` [Epigallocatechin gallate], the “Hoechst total cell count ratio” value with hAMSC donor 1 [1] (setting [7]) worked out at 1.02 ± 0.019; in the assay with hAMSC donor 1 [1] (setting [8]), 0.939 ± 0.21; in the assay with hAMSC donor 1 [1] (setting [9]), 0.873 ± 0.097; in the assay on hAMSC donor 2 [2] (setting [7]), 1.14 ± 0.16; in the assay with hAMSC donor 2 [2] (setting [8]), 0.948 ± 0.11; in the assay on hAMSC donor 2 [2] (setting [9]), 0.954 ± 0.023. Besides, the transgenic luciferase activity in the assay on hAMSC donor 1 [3] (setting [8]) came to 1.69 ± 0.85; in the assay on hAMSC donor 2 [4] (setting [8]), 0.876 ± 0.18; in the assay on hAMSC donor 2 [4] (setting [9]) it was 0.645 ± 0.083. Besides, the transfection efficiency amounted to 1.01 ± 0.086 with hAMSC donor 1 [5] (setting [7]); 1.21 ± 0.53 in the assay on hAMSC donor 1 [5] (setting [8]); 0.974 ± 0.18 with hAMSC donor 1 [5] (setting [9]); 0.894 ± 0.15 in the assay on hAMSC donor 2 [6] (setting [7]); 0.92 ± 0.21 with hAMSC donor 2 [6] (setting [8]); 0.903 ± 0.14 in the assay with hAMSC donor 2 [6] (setting [9]).

For `O=C1CC2(CCCC2)CC(=O)N1CCCCN1CCN(c2ncccn2)CC1` [Buspirone hydrochloride], the “Hoechst total cell count ratio” value with hAMSC donor 1 [1] (setting [7]) is 1.31 ± 0.098; in the assay with hAMSC donor 1 [1] (setting [8]), 1.92 ± 0.38; with hAMSC donor 1 [1] (setting [9]), 1.38 ± 0.14; in the assay on hAMSC donor 2 [2] (setting [7]), 1.08 ± 0.088; in the assay with hAMSC donor 2 [2] (setting [8]), 1.06 ± 0.063; in the assay with hAMSC donor 2 [2] (setting [9]), 1.32 ± 0.14. Besides, the transgenic luciferase activity came to 1.27 ± 0.54 in the assay on hAMSC donor 1 [3] (setting [9]), 0.597 ± 0.21 in the assay on hAMSC donor 2 [4] (setting [7]) and 1.04 ± 0.026 in the assay on hAMSC donor 2 [4] (setting [9]). In addition, the transfection efficiency came to 0.941 ± 0.15 with hAMSC donor 1 [5] (setting [7]); 0.748 ± 0.069 in the assay with hAMSC donor 1 [5] (setting [8]); 1.19 ± 0.1 in the assay on hAMSC donor 1 [5] (setting [9]); 1.1 ± 0.18 in the assay on hAMSC donor 2 [6] (setting [7]); 0.887 ± 0.049 in the assay with hAMSC donor 2 [6] (setting [8]); 1.09 ± 0.18 with hAMSC donor 2 [6] (setting [9]).

In the case of `C#C[C@]1(O)CC[C@H]2[C@@H]3[C@H](C)CC4=C(CCC(=O)C4)[C@H]3CC[C@@]21C` [Tibolone], the “Hoechst total cell count ratio” value stood at 1.05 ± 0.058 in the assay with hAMSC donor 1 [1] (setting [7]); 1.03 ± 0.022 in the assay with hAMSC donor 1 [1] (setting [8]); 1.102 ± 0.0067 in the assay on hAMSC donor 1 [1] (setting [9]); 1.23 ± 0.088 in the assay with hAMSC donor 2 [2] (setting [7]); 1.18 ± 0.072 with hAMSC donor 2 [2] (setting [8]); 1.26 ± 0.034 with hAMSC donor 2 [2] (setting [9]). The transgenic luciferase activity with hAMSC donor 1 [3] (setting [8]) is 1.1 ± 0.13; in the assay with hAMSC donor 2 [4] (setting [7]) it was 0.78 ± 0.086; with hAMSC donor 2 [4] (setting [8]), 0.801 ± 0.096. The transfection efficiency in the assay with hAMSC donor 1 [5] (setting [7]) came out at 1.1 ± 0.099; in the assay with hAMSC donor 1 [5] (setting [8]), 1.32 ± 0.51; in the assay with hAMSC donor 1 [5] (setting [9]) it was 1.07 ± 0.28; in the assay on hAMSC donor 2 [6] (setting [7]) it was 0.988 ± 0.21; with hAMSC donor 2 [6] (setting [8]) it was 1.09 ± 0.32; in the assay on hAMSC donor 2 [6] (setting [9]), 0.991 ± 0.2.

With `NC(N)=Nc1nc(CSCC/C(N)=N/S(N)(=O)=O)cs1` [Famotidine], the “Hoechst total cell count ratio” value was determined as 1.04 ± 0.12 with hAMSC donor 1 [1] (setting [7]); 1.01 ± 0.026 with hAMSC donor 1 [1] (setting [8]); 0.992 ± 0.082 in the assay with hAMSC donor 1 [1] (setting [9]); 0.915 ± 0.093 in the assay on hAMSC donor 2 [2] (setting [7]); 1.17 ± 0.12 in the assay on hAMSC donor 2 [2] (setting [8]); 1.25 ± 0.096 with hAMSC donor 2 [2] (setting [9]). Besides, the transgenic luciferase activity with hAMSC donor 1 [3] (setting [8]) came out at 0.791 ± 0.14; in the assay with hAMSC donor 2 [4] (setting [7]) it was 0.912 ± 0.062; in the assay with hAMSC donor 2 [4] (setting [8]), 1.01 ± 0.12. Further, the transfection efficiency in the assay with hAMSC donor 1 [5] (setting [7]) amounted to 1.21 ± 0.14; with hAMSC donor 1 [5] (setting [8]), 1.79 ± 0.2; with hAMSC donor 1 [5] (setting [9]), 1.73 ± 0.39; in the assay with hAMSC donor 2 [6] (setting [7]), 1.21 ± 0.17; in the assay with hAMSC donor 2 [6] (setting [8]), 1.22 ± 0.062; in the assay with hAMSC donor 2 [6] (setting [9]) it was 0.899 ± 0.092.

As to `C=C[C@H]1CN2CC[C@H]1C[C@@H]2[C@@H](O)c1ccnc2ccc(OC)cc12` [Quinidine], the “Hoechst total cell count ratio” value was 1.16 ± 0.091 in the assay with hAMSC donor 1 [1] (setting [7]); 1.52 ± 0.065 in the assay with hAMSC donor 1 [1] (setting [8]); 1.17 ± 0.089 in the assay with hAMSC donor 1 [1] (setting [9]); 1.06 ± 0.035 with hAMSC donor 2 [2] (setting [7]); 1.1 ± 0.17 in the assay with hAMSC donor 2 [2] (setting [8]); 1.3 ± 0.2 in the assay with hAMSC donor 2 [2] (setting [9]). Further, the transgenic luciferase activity was 0.854 ± 0.25 in the assay with hAMSC donor 1 [3] (setting [9]), 0.795 ± 0.036 with hAMSC donor 2 [4] (setting [7]) and 0.531 ± 0.16 with hAMSC donor 2 [4] (setting [9]). Moreover, the transfection efficiency with hAMSC donor 1 [5] (setting [7]) turned out to be 1.27 ± 0.27; in the assay on hAMSC donor 1 [5] (setting [8]), 0.68 ± 0.048; in the assay with hAMSC donor 1 [5] (setting [9]), 1.25 ± 0.49; in the assay with hAMSC donor 2 [6] (setting [7]), 1.27 ± 0.27; in the assay with hAMSC donor 2 [6] (setting [8]) it was 1.01 ± 0.013; in the assay with hAMSC donor 2 [6] (setting [9]), 0.96 ± 0.21.

With `C#C[C@]1(O)CC[C@H]2[C@@H]3CCc4cc(OC)ccc4[C@H]3CC[C@@]21C` [Mestranol], the “Hoechst total cell count ratio” value was determined as 1.18 ± 0.18 with hAMSC donor 1 [1] (setting [7]); 1.23 ± 0.11 in the assay on hAMSC donor 1 [1] (setting [8]); 1.19 ± 0.072 with hAMSC donor 1 [1] (setting [9]); 0.978 ± 0.15 with hAMSC donor 2 [2] (setting [7]); 1.08 ± 0.058 in the assay on hAMSC donor 2 [2] (setting [8]); 1.68 ± 0.49 in the assay on hAMSC donor 2 [2] (setting [9]). For the same compound, the transgenic luciferase activity in the assay on hAMSC donor 1 [3] (setting [8]) turned out to be 2.27 ± 1.2; in the assay on hAMSC donor 2 [4] (setting [7]), 0.7 ± 0.25; in the assay with hAMSC donor 2 [4] (setting [9]), 0.726 ± 0.95. The transfection efficiency was found to be 0.952 ± 0.084 in the assay with hAMSC donor 1 [5] (setting [7]); 1.08 ± 0.16 in the assay on hAMSC donor 1 [5] (setting [8]); 0.847 ± 0.2 in the assay with hAMSC donor 1 [5] (setting [9]); 1.13 ± 0.32 with hAMSC donor 2 [6] (setting [7]); 0.942 ± 0.15 with hAMSC donor 2 [6] (setting [8]); 1.18 ± 0.19 with hAMSC donor 2 [6] (setting [9]).
